# From the odorant receptor screen of Mainland et al. (2015)
# Where “and” joins values, the source holds several entries; their conditions need not be identical. Equal entries are not always repeated. The list shows a part of the results. Single wells; the ratio to wells without odorant was worked out here, and repeats agree poorly.
# Columns and labels:
# Assay in all cases: odorant receptor activation (CRE luciferase / Renilla) (fold of no-odor wells); higher = more activation
# Details in all cases: 100 µM
# [1] = test system: OR6J1 R121H/T124A/R226H/P250S/L274S/V279L clone 1714
# OR6K2 clone 1041 = test system: OR6K2 clone 1041
# [2] = test system: OR6K3 P228S/P248L clone 1045
# OR6K3 clone 1485 = test system: OR6K3 clone 1485
# OR6K6 clone 1348 = test system: OR6K6 clone 1348
# OR6K6 clone 1392 = test system: OR6K6 clone 1392
# OR6M1 clone 1182 = test system: OR6M1 clone 1182
# [3] = test system: OR6N1 I194T/F245L/Q261R/R293H clone 1038
# OR6N2 clone 1027 = test system: OR6N2 clone 1027
# OR6P1 clone 1034 = test system: OR6P1 clone 1034
# OR6Q1 clone 1231 = test system: OR6Q1 clone 1231
# [4] = test system: OR6S1 T42I/V156I/R237H clone 1271
# OR6T1 clone 1188 = test system: OR6T1 clone 1188
# OR6V1 clone 1730 = test system: OR6V1 clone 1730
# OR6X1 clone 1239 = test system: OR6X1 clone 1239
# OR6Y1 V252I clone 1025 = test system: OR6Y1 V252I clone 1025
# OR7A10 clone 1104 = test system: OR7A10 clone 1104
# OR7A17 clone 1300 = test system: OR7A17 clone 1300
# OR7A5 clone 1469 = test system: OR7A5 clone 1469
# OR7C1 clone 1299 = test system: OR7C1 clone 1299
Compound,odorant receptor activation [1],odorant receptor activation (OR6K2 clone 1041),odorant receptor activation [2],odorant receptor activation (OR6K3 clone 1485),odorant receptor activation (OR6K6 clone 1348),odorant receptor activation (OR6K6 clone 1392),odorant receptor activation (OR6M1 clone 1182),odorant receptor activation [3],odorant receptor activation (OR6N2 clone 1027),odorant receptor activation (OR6P1 clone 1034),odorant receptor activation (OR6Q1 clone 1231),odorant receptor activation [4],odorant receptor activation (OR6T1 clone 1188),odorant receptor activation (OR6V1 clone 1730),odorant receptor activation (OR6X1 clone 1239),odorant receptor activation (OR6Y1 V252I clone 1025),odorant receptor activation (OR7A10 clone 1104),odorant receptor activation (OR7A17 clone 1300),odorant receptor activation (OR7A5 clone 1469),odorant receptor activation (OR7C1 clone 1299)
COc1cc(C)ccc1O [2-methoxy-4-methylphenol],0.828,1.84,1.76,0.797,0.874,1.02,0.774,1.51,1.78,2.12,1.18,0.677,1.08,0.789,0.898,1.82,3.22,1.16,0.836,1
CC(C)CC(=O)O [isovaleric acid],1.93,1,1.43,0.819,0.958,0.61,1.23,1.14,1.3,1.3,1.07,0.766,0.974,1.07,1.25,1.21,1.03,0.974,0.831,0.951
CC(C)CCC(=O)O [4-methylvaleric acid],0.789,1.69,1.21,0.753,0.942,1.02,0.736,1.74,2.87,1.53,1,1.04,1.56,0.825,0.805,1.75,4.17,1.23,1.09,1.16
CCCCCCCCC=O [nonyl aldehyde],0.707,0.981,1.02,0.879,0.909,0.834,1.26,0.983,1.28,1.07,0.732,1.08,0.981,0.834,1.05,1.16,1.08,1.17,1.01,1.09
CC12CCC(CC1)C(C)(C)O2 [cineole],0.81,0.878,0.79,0.736,0.966,0.153,0.794,0.816,0.683,1.04,1.02,0.811,1.01,0.965,0.903,0.874,0.772,0.775,0.814,1.23
CC(C)=CCCC(C)=CC=O [citral],1.1,1.29,1.27,1.01,0.979,0.212,1.01,1.08,1.01,1.26,1.29,1.1,0.872,0.925,0.763,1.31,1.05,0.86,1.01,1.32
c1cnccn1 [pyrazine],0.787,1.11,0.858,0.76,0.743,1.2,0.851,0.787,0.894,1.07,0.93,0.76,0.817,0.739,0.821,1.06,1.25,1.06,0.778,0.995
C=CCSCC=C [diallyl sulfide],0.697,1.2,1.02,1.3,1.07,1.13,0.887,0.862,0.899,0.882,0.939,1.09,1.13,0.931,0.745,1.25,0.914,0.848,1.53,0.996
CCCCCCOC(=O)CCC [hexyl butyrate],0.881,0.654,1.68,1.02 and 0.98,1.24 and 0.97,0.806,0.931,0.486,1.04,0.476,1.05,1.07 and 0.85,0.966,0.801,0.98,0.98,0.99,1.02 and 1.38,1.1 and 0.811,1.31 and 0.962
C=C(C)C1CC=CCC1 (stereo not given) [r-limonene],0.862,1.18 and 0.914,1.31 and 1.29,1.02 and 0.483 and 0.894,0.792 and 0.72 and 0.571,1.44 and 0.978,0.778 and 0.357,1.12 and 1.25,1.09 and 1.13,1.33 and 1.57,1.07,0.942 and 0.378,0.98 and 0.877,1.03,1.17,1.27 and 1.45,1.38 and 0.95,0.769 and 0.418,0.851 and 0.52 and 0.759,0.994 and 0.355
CCC1(O)C2(C)CCC(C2)C1(C)C (stereo not given) [2-ethylfenchol],0.839,2.84,2.83,1.22,0.838,1.14,0.818,3.58,3.46,3.08,0.861,0.958,1.01,0.959,0.629,3.97,7.9,1.06,1.29,1.07
COc1cc(C=O)ccc1O [vanillin],1.03,0.958,1.13,1.09,1.03,1.06,1.12,0.981,0.838,0.999,1.2,1.21,0.791,0.644,1.17,0.868,1.38,1.13,1.1,1.2
O=C1CCCCCCCCCCCC(=O)OCCO1 [ethylene brassylate],0.855,1.89,2.06,1.41,1.31,2.02,1.61,1.46,1.46,1.71,1.87,1.25,2.27,1.09,0.959,1.64,1.51,1.16,1.64,1.56
CC(=O)OC(C)(C)C1CC=C(C)CC1 (stereo not given) [terpinyl acetate],1.28,1.54,1.53,0.993,0.792,1,1.14,1.09,1.25,1.44,0.982,0.882,1.08,1.1,1.13,1.32,1.93,0.889,0.939,0.863
"CC1CCC(C(C)C)C(O)C1 (single isomer, unassigned; (+)) [(+)-menthol]",0.93,3.4,2.41,0.969,0.758,1.12,1.08,3.41,3.29,2.91,1.08,0.735,1.31,0.741,1,3.55,7.69,1.12,1.25,0.872
C=CC(C)(O)CCC=C(C)C (stereo not given) [linalool],1.96,1.12,1.56,1.19,0.841,0.656,1.09,1.24,1.31,1.18,0.812,0.958,1.04,1.07,1.08,1.29,1.25,1.22,1.12,1.32
CCCCCCCOC(C)=O [heptyl acetate],0.838,0.947,1.08,1.18 and 1.21,0.648 and 0.564,1.02,1.05,0.58,1.64,0.717,0.909,1.06 and 1.09,0.804,0.811,0.889,2.91,1.2,1.4 and 0.872,1.03 and 1.26,0.889 and 0.854
CCCCCCCC=O [octyl aldehyde],0.92,1.23,1.36,1.21,1.14,0.678,1.13,1.08,1.2,1.24,0.836,1,1.02,0.915,0.866,1.2,1.2,1.4,1.02,1.58
CC=Cc1ccc(O)c(OC)c1 [isoeugenol],3.26,1.5,1.09,1.26 and 1.81,1.44 and 0.914,1.12,1.71,0.604,1.06,0.827,1.13,0.967 and 1.46,0.981,4.9,4.35,2.21,1.4,1.78 and 1.29,0.897 and 1.84,1.11 and 1.28
CC(=O)OC1CC2CCC1(C)C2(C)C (stereo not given) [isobornyl acetate],2.01,1.44,1.35,1.19 and 1.13,1.19 and 0.758,0.874,0.987,0.599,1.05,0.653,0.941,1.38 and 1.08,1.21,0.774,0.913,1.43,1.86,1.74 and 1.11,1.15 and 1.13,1.22 and 0.821
CC(C)C(=O)O [isobutyric acid],1.85,0.849,1.67,1.11 and 1.1,1.16 and 0.822,0.726,0.948,0.631,1.46,0.788,0.798,1 and 0.844,1.03,0.992,1.11,2.37,1.88,1.05 and 1.23,1.14 and 1.02,1.2 and 0.726
O=C1CCCCCCCCCCCCCCO1 [pentadecalactone],0.956,1.08,1.31,1.04,0.749,1.1,0.652,0.717,0.826,0.801,0.907,0.645,0.651,0.758,0.942,0.919,1.26,0.894,0.771,0.975
"CC1CCC(C(C)C)C(O)C1 (single isomer, unassigned; (-)) [(-)-menthol]",1.15,2.83,2.49,3.69,0.585,0.895,1.16,3.27,3.6,2.72,1.04,0.543,1.3,1.07,1.04,3.13,6.21,0.677,4.18,0.756
CC1=CCC(C(C)(C)O)CC1 (stereo not given) [terpineol],1.24,1.26,1.32,0.829,0.708,1.18,1.05,0.871,0.997,1.22,1.14,0.963,1.16,0.878,1.3,0.9,1.48,0.789,0.668,0.977
CCCC(=O)O [butyric acid],0.962,1.29,1.17,0.727,0.744,0.183,0.783,1.13,0.94,1.54,1.26,0.979,0.881,1.01,1.18,1.1,1.2,0.92,0.832,1.32
CCCCCCCCCC=O [decyl aldehyde],0.929,1.57,1.17,1.17,1.38,1.37,1.14,1.2,1.24,1.02,1.38,1.16,1.5,0.96,0.801,1.59,1.12,1.15,1.11,1.37
CC(C)C=O [isobutyraldehyde],1.85,1.07,1.04,1.21 and 1,1.18 and 0.687,0.934,1.34,0.563,1.15,0.69,1.05,1.22 and 0.965,0.898,0.812,0.984,1.29,2.24,1.11 and 1.02,1.06 and 1.22,0.895 and 1.08

# Pulled one by one from the list above (2):
Compound,odorant receptor activation [1],odorant receptor activation (OR6K2 clone 1041),odorant receptor activation [2],odorant receptor activation (OR6K3 clone 1485),odorant receptor activation (OR6K6 clone 1348),odorant receptor activation (OR6K6 clone 1392),odorant receptor activation (OR6M1 clone 1182),odorant receptor activation [3],odorant receptor activation (OR6N2 clone 1027),odorant receptor activation (OR6P1 clone 1034),odorant receptor activation (OR6Q1 clone 1231),odorant receptor activation [4],odorant receptor activation (OR6T1 clone 1188),odorant receptor activation (OR6V1 clone 1730),odorant receptor activation (OR6X1 clone 1239),odorant receptor activation (OR6Y1 V252I clone 1025),odorant receptor activation (OR7A10 clone 1104),odorant receptor activation (OR7A17 clone 1300),odorant receptor activation (OR7A5 clone 1469),odorant receptor activation (OR7C1 clone 1299)
O=C1CCCCCCCCCCCCCCO1 [pentadecalactone],0.956,1.08,1.31,1.04,0.749,1.1,0.652,0.717,0.826,0.801,0.907,0.645,0.651,0.758,0.942,0.919,1.26,0.894,0.771,0.975
COc1cc(C)ccc1O [2-methoxy-4-methylphenol],0.828,1.84,1.76,0.797,0.874,1.02,0.774,1.51,1.78,2.12,1.18,0.677,1.08,0.789,0.898,1.82,3.22,1.16,0.836,1
